In experiment [1] the target is GCP16 with a N-terminal His tag (human) (UniProt Q7Z5G4). Kind of experiment: pull-down + SEC.
The next experiment deals with T1, Erf4 (yeast) (UniProt P41912).
T1 sequence: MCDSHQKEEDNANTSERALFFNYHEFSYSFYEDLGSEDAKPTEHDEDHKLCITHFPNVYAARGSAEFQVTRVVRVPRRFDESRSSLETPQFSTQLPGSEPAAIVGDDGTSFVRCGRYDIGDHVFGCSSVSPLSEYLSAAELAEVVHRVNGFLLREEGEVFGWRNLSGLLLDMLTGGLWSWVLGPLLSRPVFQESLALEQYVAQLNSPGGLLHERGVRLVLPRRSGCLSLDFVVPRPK
Kind of experiment: co-purification.

Sequences of proteins named here, by UniProt entry; tags and fusion partners are left off. A change or cut given only in a name is not applied to a line headed by its entry.
UniProt Q7Z5G4, whole entry: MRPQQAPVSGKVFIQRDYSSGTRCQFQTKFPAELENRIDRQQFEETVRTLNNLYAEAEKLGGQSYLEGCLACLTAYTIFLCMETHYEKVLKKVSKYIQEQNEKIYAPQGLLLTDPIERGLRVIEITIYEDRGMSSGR

Results are given in words; binding and its absence hold for the method and conditions named. For some assays here: In cells and extracts the contact can be indirect. Some results given as binding are weak or reduced against the parent protein; the word gives no strength. For some assays here: Where a sequence is shown, tags or fusion partners need not be part of it.

B1: DHHC18 with a C-terminal FLAG tag (enzyme, UniProt Q9NUE0 1-388)
chain: MKDCEYQQISPGAAPLPASPGARRPGPAASPTPGPGPAPPAAPAPPRWSSSGSGSGSGSGSLGRRPRRKWEVFPGRNRFYCGGRLMLAGHGGVFALTLLLILTTTGLFFVFDCPYLARKLTLAIPIIAAILFFFVMSCLLQTSFTDPGILPRATVCEAAALEKQIDNTGSSTYRPPPRTREVLINGQMVKLKYCFTCKMFRPPRTSHCSVCDNCVERFDHHCPWVGNCVGRRNYRFFYAFILSLSFLTAFIFACVVTHLTLRAQGSNFLSTLKETPASVLELVICFFSIWSILGLSGFHTYLVASNLTTNEDIKGSWSSKRGGEASVNPYSHKSIITNCCAVLCGPLPPSLIDRRGFVQSDTVLPSPIRSDEPACRAKPDASMVGGHP
B1: in experiment [1], the binding entry is “binds”.

B2: C203A catalytic dead mutant of Erf2 (enzyme, UniProt Q06551 1-359)
chain: MALVSRRSTRSESTSITKEEHTGEGSLTKLFFRWLVTLEGDQDINDGKGYISLPNVSNYIFFLGGRFRTVKGAKPLWLGVLLAIVCPMVLFSIFEAHKLWHTQNGYKVLVIFFYYFWVITLASFIRTATSDPGVLPRNIHLSQLRNNYQIPQEYYNLITLPTHSSISKDITIKYCPSCRIWRPPRSSHCSTCNVCVMVHDHHAIWVNNCIGKRNYRFFLIFLLGAILSSVILLTNCAIHIARESGGPRDCPVAILLLCYAGLTLWYPAILFTYHIFMAGNQQTTREFLKGIGSKKNPVFHRVVKEENIYNKGSFLKNMGHLMLEPRGPSFVSARKPHEAGDWRFMDLSPAHSFEKIQKI
For B2, the binding entry in the experiment with Erf4 (yeast) is given as “binds”.

(Values after publication doi:10.1101/2022.12.12.520165.)
